Experimental data: article PMC6599030
No constants are given. Whether binding was seen depends on the method and setting. Binding seen in cells or lysates may run through a third protein. These calls come from enrichment with a bait or labelling near it, and not all partners need be listed. Where a sequence is shown, tags or fusion partners need not be part of it.

Sequences of proteins named here, by UniProt entry; tags and fusion partners are left off.
UniProt Q15836: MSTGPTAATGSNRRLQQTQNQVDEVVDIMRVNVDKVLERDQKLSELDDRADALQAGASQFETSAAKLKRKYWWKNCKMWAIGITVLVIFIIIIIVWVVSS

Target: T1, GFP-WDFY2 (UniProt Q96P53)
T1 sequence: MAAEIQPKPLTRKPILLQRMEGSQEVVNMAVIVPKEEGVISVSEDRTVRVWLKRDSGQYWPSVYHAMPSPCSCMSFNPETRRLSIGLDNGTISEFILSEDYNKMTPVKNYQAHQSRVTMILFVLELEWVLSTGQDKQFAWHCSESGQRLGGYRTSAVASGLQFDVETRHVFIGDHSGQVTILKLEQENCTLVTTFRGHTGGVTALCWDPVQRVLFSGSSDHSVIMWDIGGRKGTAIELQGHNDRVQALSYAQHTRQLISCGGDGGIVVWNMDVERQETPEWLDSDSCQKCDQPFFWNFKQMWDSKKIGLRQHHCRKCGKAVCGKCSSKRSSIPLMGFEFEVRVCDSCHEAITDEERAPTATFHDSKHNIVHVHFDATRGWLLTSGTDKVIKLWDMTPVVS
Test: affinity purification with mass spectrometry; GFP-trap magnetic beads added to lysates of stable hTERT-RPE1 cells expressing GFP-WDFY2 or GFP (control); lysis buffer 50 mM TRIS, NaCl, 0.25% Triton X100, 1 mM DTT, 50 µM ZnCl2; rotating at 4° for 4 h; label-free quantitative LC-MS/MS

VAMP3 (from UniProt Q15836 1-100) was tested, and the binding was “binds”.
